Test results as given in patent US20250186411A1, “Methods of Treating Disorders Associated with Overactivation of IKKB” (The United States Government as represented by the …, priority 2023, published 2025).

How the values were obtained:
[1] = system: KLF15 promoter (pEZX-FR03hKLF15p human podocytes); assay: KLF15 reporter high-throughput screening assay in human podocytes (firefly/renilla luciferase); assay type: cell-based; conditions: NCI library hits, 24 hours, read-out: Fold Change (KLF15 reporter activity)
Experimental: Briefly, these podocytes proliferate under permissive conditions (gamma interferon at 33° C.), but differentiate under nonpermissive conditions (37° C.).
The amplified fragment contains MluI and PmeI RE sites and was subcloned into the MluI and PmeI cloning site of the pEZX-FR03 Firefly luciferase (FLuc) and Renilla luciferase (Rluc) reporter cloning vector (GeneCopoeia) to generate pEZX-FR03hKLF15p. Following verification of the sequence by restriction and μsequencing, the pEZX-FR03hKLF15p construct (which contains a puromycin resistance cassette) was transfected into human podocytes followed by selection in puromycin-containing media for 2 weeks. Surviving podocytes clones were pooled together for further analysis.
The library of compounds from the National Cancer Institute (Approved Oncology Drugs Set VI; Natural Products Set III; Diversity Set V; and Mechanistic Diversity Set II) were added to a final concentration of 1 μM in 0.5% DMSO in the low FBS cell culture media (0.2% FBS) using liquid handling system PipetMax (Gilson). After 24 hours incubation at 37° C., the Luc-Pair™ Duo-Luciferase HT Assay Kit (GeneCopoeia LF015) were used and firefly and renilla luciferase activity was determined using the SpectraMax M3 (Molecular Devices). Positive controls were all-trans retinoic acid (atRA) (1 μM) and dexamethasone (DEX) (1 μM). Negative controls were DMSO and cell-free media. […]

[2] = system: KLF15 promoter (pEZX-FR03hKLF15p human podocytes); assay: Half maximal effective concentration (EC50) of KLF15 reporter activity; assay type: cell-based; conditions: dose-response
Experimental: The EC50 was determined using nonlinear regression and then choosing the equation of Sigmoidal function, 4PL method (X is log(concentration); or the equation of log(agonist) vs. response—variable slope).
To identify small molecule inducers of KLF15 expression in human podocytes, human podocytes were generated with a dual reporter, firefly luciferase directed at the KLF15 promoter region and renilla luciferase (pEZX-FR03hKLF15p). […] The positive controls were inducers of KLF15 expression, dexamethasone (DEX) and all-trans retinoic acid (atRA), and […] and cell-free wells served as negative controls.

EC50 [2]: ~28.7 µM
Structure (SMILES): CNC(=O)c1ccccc1Sc1ccc2c(/C=C/c3ccccn3)n[nH]c2c1 [C-22, Axitinib, reference compound]
fold induction at 1 µM [1]: 3.06
